The target of test [1] is endogenous MAML1 of WT MEFs (mouse (endogenous in WT MEFs)) (UniProt Q6T264). The test is described as follows: co-IP; endogenous proteins from WT MEF whole-cell extracts; antibody and protein A/G agarose, 4 °C; immunoblot. (In general: A western blot detects proteins with antibodies after separation by electrophoresis.)
For test [2], the target named is Flag-Itch wild type (UniProt Q96J02). The test is described as follows: co-IP; HEK293T co-transfected with the tagged plasmids; whole-cell extracts in 50 mM Tris-HCl pH 7.5, 150 mM NaCl, 1% NP-40, 5 mM EDTA lysis buffer; antibody or anti-Flag M2 agarose, 4 °C; immunoblot.
Test [3] concerns the target GST-Itch (UniProt Q96J02). Nature of the test: pull-down; recombinant GST fusion bound to Glutathione Sepharose 4B beads, incubated 2 h with precleared whole-cell extracts of transfected HEK293T; washed with 20 mM Tris-HCl pH 8, 200 mM NaCl, 1 mM EDTA, NP-40; eluted with reduced glutathione; anti-Flag immunoblot; only the target purified.

By UniProt entry, the sequences of proteins in these tests, tags left out. Where a name states a change or a piece, a line headed by the entry shows the natural chain unless it says otherwise. Chains listed by the source or under a name are the forms on record and can include a tag or linker.
UniProt Q96J02: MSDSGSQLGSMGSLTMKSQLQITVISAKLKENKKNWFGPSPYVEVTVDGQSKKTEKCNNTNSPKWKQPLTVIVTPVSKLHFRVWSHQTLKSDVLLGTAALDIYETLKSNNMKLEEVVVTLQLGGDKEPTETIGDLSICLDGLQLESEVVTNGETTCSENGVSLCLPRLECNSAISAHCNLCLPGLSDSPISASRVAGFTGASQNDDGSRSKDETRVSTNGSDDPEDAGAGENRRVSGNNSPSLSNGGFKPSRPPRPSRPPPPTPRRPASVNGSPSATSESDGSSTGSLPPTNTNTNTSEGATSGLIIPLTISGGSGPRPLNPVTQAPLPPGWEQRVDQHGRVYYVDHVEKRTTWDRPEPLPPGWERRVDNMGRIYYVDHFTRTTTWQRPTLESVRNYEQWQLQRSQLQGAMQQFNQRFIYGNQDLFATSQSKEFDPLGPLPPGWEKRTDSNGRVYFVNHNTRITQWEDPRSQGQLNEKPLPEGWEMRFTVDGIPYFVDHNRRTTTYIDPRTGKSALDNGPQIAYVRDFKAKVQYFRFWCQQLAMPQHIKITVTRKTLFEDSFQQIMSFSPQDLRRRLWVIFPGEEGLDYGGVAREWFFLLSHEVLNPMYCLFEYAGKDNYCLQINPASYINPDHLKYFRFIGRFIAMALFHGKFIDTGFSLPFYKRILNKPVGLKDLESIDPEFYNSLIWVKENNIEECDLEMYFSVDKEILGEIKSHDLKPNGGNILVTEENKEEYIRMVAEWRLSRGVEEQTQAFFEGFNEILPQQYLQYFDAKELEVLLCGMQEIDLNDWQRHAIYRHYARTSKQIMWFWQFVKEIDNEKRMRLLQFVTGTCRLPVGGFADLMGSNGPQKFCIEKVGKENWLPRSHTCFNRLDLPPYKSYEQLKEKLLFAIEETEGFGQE
Flag-Itch wild type (Q96J02, form named): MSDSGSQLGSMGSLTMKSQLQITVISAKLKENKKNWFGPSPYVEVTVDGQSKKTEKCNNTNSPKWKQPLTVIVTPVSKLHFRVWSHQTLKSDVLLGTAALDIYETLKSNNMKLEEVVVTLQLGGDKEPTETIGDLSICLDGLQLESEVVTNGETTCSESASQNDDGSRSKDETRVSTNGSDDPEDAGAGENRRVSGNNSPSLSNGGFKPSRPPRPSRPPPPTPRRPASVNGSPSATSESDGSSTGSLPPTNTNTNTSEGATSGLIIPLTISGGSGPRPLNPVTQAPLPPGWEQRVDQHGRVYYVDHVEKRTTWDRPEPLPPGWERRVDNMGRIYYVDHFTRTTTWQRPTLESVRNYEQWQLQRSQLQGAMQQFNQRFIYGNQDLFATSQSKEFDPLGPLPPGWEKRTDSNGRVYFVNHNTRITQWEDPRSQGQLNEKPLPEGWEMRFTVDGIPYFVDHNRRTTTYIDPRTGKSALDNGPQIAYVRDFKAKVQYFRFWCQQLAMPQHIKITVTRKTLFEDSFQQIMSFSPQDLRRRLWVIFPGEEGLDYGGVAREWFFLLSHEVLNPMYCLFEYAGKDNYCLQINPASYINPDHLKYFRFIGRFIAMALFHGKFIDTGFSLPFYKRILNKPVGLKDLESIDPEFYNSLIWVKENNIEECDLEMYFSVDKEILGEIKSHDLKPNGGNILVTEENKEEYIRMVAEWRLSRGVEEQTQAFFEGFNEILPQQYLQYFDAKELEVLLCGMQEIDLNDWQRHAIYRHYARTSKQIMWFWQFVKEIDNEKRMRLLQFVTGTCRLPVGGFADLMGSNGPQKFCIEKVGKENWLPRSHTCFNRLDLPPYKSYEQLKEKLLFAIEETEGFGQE
UniProt Q8C863: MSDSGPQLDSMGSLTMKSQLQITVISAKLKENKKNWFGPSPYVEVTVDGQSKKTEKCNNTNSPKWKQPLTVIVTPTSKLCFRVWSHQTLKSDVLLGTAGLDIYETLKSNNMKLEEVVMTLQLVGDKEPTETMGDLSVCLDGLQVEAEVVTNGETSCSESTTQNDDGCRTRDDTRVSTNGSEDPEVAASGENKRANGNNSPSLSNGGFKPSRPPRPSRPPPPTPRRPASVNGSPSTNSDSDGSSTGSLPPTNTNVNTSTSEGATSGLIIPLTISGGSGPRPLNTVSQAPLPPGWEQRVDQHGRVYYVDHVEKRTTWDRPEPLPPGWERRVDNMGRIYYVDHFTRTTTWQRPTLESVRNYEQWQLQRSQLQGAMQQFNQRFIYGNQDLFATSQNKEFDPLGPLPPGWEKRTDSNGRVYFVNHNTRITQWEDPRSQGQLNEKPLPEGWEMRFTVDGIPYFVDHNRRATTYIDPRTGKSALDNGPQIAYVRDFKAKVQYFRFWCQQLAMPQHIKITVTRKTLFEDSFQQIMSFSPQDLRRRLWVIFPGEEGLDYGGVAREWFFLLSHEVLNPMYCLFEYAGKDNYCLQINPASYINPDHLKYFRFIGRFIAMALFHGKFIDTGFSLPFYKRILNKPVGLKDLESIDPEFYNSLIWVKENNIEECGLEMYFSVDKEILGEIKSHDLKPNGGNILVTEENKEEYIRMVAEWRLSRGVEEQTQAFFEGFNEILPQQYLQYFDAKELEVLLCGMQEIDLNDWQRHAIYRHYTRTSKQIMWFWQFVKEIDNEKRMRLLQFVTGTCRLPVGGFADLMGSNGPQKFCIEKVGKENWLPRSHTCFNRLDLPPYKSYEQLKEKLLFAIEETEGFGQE

No constants are given. Whether binding was seen depends on the method and setting. In cells and extracts the contact can be indirect. Some binding calls cover weakened binding; strength is not graded here. For part of these data: Tags and fused reporters may be left off the sequences shown.

Consider “endogenous Itch of WT MEFs (from UniProt Q8C863 1-864) (enzyme)”, for which, in test [1], the binding entry was “binds”.
For “V5-MAML1 (pHAGE-N-V5-MAML1-FL) (from UniProt Q92585 1-1016)”, the binding entry in test [2] is “binds”.

B1: Flag-MAML1 303-1016 (pFLAG-CMV-2 MAML1 (303-1016)) (domain or fragment, UniProt Q92585 303-1016)
chain: SPAAFEQEQLGSPQVRAGSAGQTFLGPSSAPVSTDSPSLGGSQTLFHTSGQPRADNPSPNLMPASAQAQNAQRALAGVVLPSQGPGGASELSSAHQLQQIAAKQKREQMLQNPQQATPAPAPGQMSTWQQTGPSHSSLDVPYPMEKPASPSSYKQDFTNSKLLMMPSVNKSSPRPGGPYLQPSHVNLLSHQPPSNLNQNSANNQGSVLDYGNTKPLSHYKADCGQGSPGSGQSKPALMAYLPQQLSHISHEQNSLFLMKPKPGNMPFRSLVPPGQEQNPSSVPVQAQATSVGTQPPAVSVASSHNSSPYLSSQQQAAVMKQHQLLLDQQKQREQQQKHLQQQQFLQRQQHLLAEQEKQQFQRHLTRPPPQYQDPTQGSFPQQVGQFTGSSAAVPGMNTLGPSNSSCPRVFPQAGNLMPMGPGHASVSSLPTNSGQQDRGVAQFPGSQNMPQSSLYGMASGITQIVAQPPPQATNGHAHIPRQTNVGQNTSVSAAYGQNSLGSSGLSQQHNKGTLNPGLTKPPVPRVSPAMGGQNSSWQHQGMPNLSGQTPGNSNVSPFTAASSFHMQQQAHLKMSSPQFSQAVPNRPMAPMSSAAAVGSLLPPVSAQQRTSAPAPAPPPTAPQQGLPGLSPAGPELGAFSQSPASQMGGRAGLHCTQAYPVRTAGQELPFAYSGQPGGSGLSSVAGHTDLIDSLLKNRTSEEWMSDLDDLLGSQ
With B1, in test [3], the binding result was “binds”.
